{"source": "PubChem BioAssay AID1224830 (NIAID, 2016)", "purpose": "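Genes whose knock-down alters the TNF-alpha reporter response to LPS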 (primary screen)", "cell system": "human THP-1 monocytic leukaemia cells, TNF dual-luciferase reporter clone, PMA-differentiated to macrophage-like cells", "reagent": "siRNA pool against human genes, 50 nM", "duration": "LPS for 4 h, given about 3 days after siRNA transfection", "treatment": "bacterial LPS (TLR4 ligand), 10 ng/ml", "detection": "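TNF firefly reporter luminescence divided by renilla, normalised to the plate median, then turned into a robust z-score for each replicate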", "scale": "TNF reporter robust z-score: higher = stronger TNF reporter response to LPS", "rule for the call": "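a well is active when its z-score exceeds 2.8 or falls below -1.5; control wells carry no call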", "note": "The deposit covers about 18,000 reagents; below is a random part of them. About 2,900 of them (16%) were called active. 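Calls are made per well; low scores hint the gene aids the LPS response, high scores that it dampens it.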 Entries without a mark were called inactive. Repeated entries: four replicate wells of each siRNA pool."}
{"Target gene":"EDARADD","TNF reporter robust z-score":1.61}
{"Target gene":"EDARADD","TNF reporter robust z-score":1.6}
{"Target gene":"EDARADD","TNF reporter robust z-score":2.09}
{"Target gene":"EDARADD","TNF reporter robust z-score":0.76}
{"Target gene":"TSPAN16","TNF reporter robust z-score":-0.34}
{"Target gene":"TSPAN16","TNF reporter robust z-score":0.76}
{"Target gene":"TSPAN16","TNF reporter robust z-score":0.52}
{"Target gene":"TSPAN16","TNF reporter robust z-score":0.29}
{"Target gene":"WFDC10B","TNF reporter robust z-score":-1.02}
{"Target gene":"WFDC10B","TNF reporter robust z-score":-1.47}
{"Target gene":"WFDC10B","TNF reporter robust z-score":-1.04}
{"Target gene":"WFDC10B","TNF reporter robust z-score":-1.05}
{"Target gene":"APBB2","TNF reporter robust z-score":-0.81}
{"Target gene":"APBB2","TNF reporter robust z-score":-0.53}
{"Target gene":"APBB2","TNF reporter robust z-score":1.09}
{"Target gene":"APBB2","TNF reporter robust z-score":-0.11}
{"Target gene":"CLIC5","TNF reporter robust z-score":0.28}
{"Target gene":"CLIC5","TNF reporter robust z-score":0.41}
{"Target gene":"CLIC5","TNF reporter robust z-score":-0.52}
{"Target gene":"CLIC5","TNF reporter robust z-score":-0.74}
{"Target gene":"SH2D1A","TNF reporter robust z-score":-0.24}
{"Target gene":"SH2D1A","TNF reporter robust z-score":-0.45}
{"Target gene":"SH2D1A","TNF reporter robust z-score":0.14}
{"Target gene":"SH2D1A","TNF reporter robust z-score":0.28}
{"Target gene":"ZFP3","TNF reporter robust z-score":0.07}
{"Target gene":"ZFP3","TNF reporter robust z-score":-0.06}
{"Target gene":"ZFP3","TNF reporter robust z-score":-0.76}
{"Target gene":"ZFP3","TNF reporter robust z-score":-0.15}
{"Target gene":"NT5C3A","TNF reporter robust z-score":"-1.9 (active)"}
{"Target gene":"NT5C3A","TNF reporter robust z-score":"-1.69 (active)"}
{"Target gene":"NT5C3A","TNF reporter robust z-score":0.11}
{"Target gene":"NT5C3A","TNF reporter robust z-score":-0.68}
{"Target gene":"OR5P3","TNF reporter robust z-score":-0.41}
{"Target gene":"OR5P3","TNF reporter robust z-score":0.52}
{"Target gene":"OR5P3","TNF reporter robust z-score":0.9}
{"Target gene":"OR5P3","TNF reporter robust z-score":1.27}
{"Target gene":"DST","TNF reporter robust z-score":1.9}
{"Target gene":"DST","TNF reporter robust z-score":0.44}
{"Target gene":"DST","TNF reporter robust z-score":1.7}
{"Target gene":"DST","TNF reporter robust z-score":-0.89}
{"Target gene":"CTSG","TNF reporter robust z-score":-0.6}
{"Target gene":"CTSG","TNF reporter robust z-score":0.27}
{"Target gene":"CTSG","TNF reporter robust z-score":-0.41}
{"Target gene":"CTSG","TNF reporter robust z-score":1.05}
{"Target gene":"UBE2T","TNF reporter robust z-score":2.66}
{"Target gene":"UBE2T","TNF reporter robust z-score":"2.88 (active)"}
{"Target gene":"UBE2T","TNF reporter robust z-score":1.55}
{"Target gene":"UBE2T","TNF reporter robust z-score":0.75}
